Data from the DeepSol protein solubility set.

Experiment: soluble on expression in E. coli; label from the status in PepcDB or PDB records

Row | Sequence | soluble on expression in E. coli
1 | MTKVHYSRAPENSTKSCKARGSDLRVHFKNTHEAAMALRGMPLRRAQAFLNHVKEHKEIVPFRRFLDLLKNAESNAEYKGLDVDHLVIEHINVQRAAKLRRRTYRAHGRINPYMSSPCHIEVILAEKEDVVSKPTDDAAPKVKKESKRKQRRQLARGEF | soluble
2 | MTPAGFPPSSRQIAFFEMESRSGARVGVQWRDLGSLQLSSPRFKRLSCLSLLSSWYYRCPPPQPANFCVFTRDGVSLCWPGRSRTPDLRHSARLGLPKCRDYRCEPPCPAIRLLFMFAAPWGNAMATALAIQGSRACGLCVSVCVYTYSCPPAAFQVTLSHPKPC | not soluble
3 | MTRSSLFEELAEIAKERIMIIDGAMGTMIQREYMEEEDFRGEILKDHDKPLKGNNDLLSITRPDIIYKIHKLYLEAGADFVETNTFSGTTIAQADYRCEHLVHEINYQSALVARRACDDVGAATGRRRYVCGAIGPTNRTLSISPSVEKPDFRNVTFQELVKAYGDQARSLIQGGVDVLLVETVFDSANAKAALFAIRTLFEDEGVPEMPVFLSGTIVDMSGRTLSGQTGEAFLVSTKQGKPMAVGLNCALGAKDMRQFVDNMSKWSDSFIICYPNAGLPNALGGYDETPEEMADVLREFARDGLVNIIGGCCGTTPDHINAMYKAVQGITPRVPPQDPHAGKMLLSGLEPSIVGPETNFVNIGERCNVAGSRRFCNLIKNENYDTAIDVARVQVDSGAQILDVNMDDGLLDGPYAMSKFLRLISSEPDVAKIPVCIDSSDFDVIIAGLESTQGKCVVNSISLKEGEEKFKERARIIKRYGAAVVVMAFDEQGQAAETDPKFEICERSYRILTEEVGFNPNDIIFDANILTIATGMEEHSNYGMYFIEAARMIRENLPGAHVSGGVSNISFSFRGMEAIREAMHSVFLFYAIKAGMDMGIVNAGALPVYEDIDKPLLQLLEDLLFNRDPEATEKLLVAAQEMKKDGKKADTKTDEWRSLTVEERLKFALVKGVDQFVVADTEEARQNTAKYPRPLNVIERPLMDGMAVVGELFGAGKMFLPQVIKSARVMKKAVAHLLPFMEIERQANIETMGLAEDESPYQGTVVIATVKGDVHDIGKNIVSVVLGCNNFKVVDLGVMTPCENIIKAAIEEKADFIGLSGLITPSLDEMVYVAKEMNRVGLNIPLLIGGATTSKTHTAVKISPRYPHPVVHCLDASKSVVVCSSLSDMSVRDAFLQDLNEDYEDVRQEHYASLKDRRFTDLNKTREKKFKIDWDKFTAVKPSFVGRREYQNFDLNELIPYIDWKPFFDVWQLRGKYPNRSYPKIFDDADVGAEAKKVFDDAQTWLKKLIDEKILVANAVVSFLPAASEGDDMHVYDPETGNKLDTFYGLRQQSGREHDQPHFCLSDFIKPLKNGVPDDYLGLFACTAGLGAEEYCKTLEKNHDDYASIMVKALADRLAEAYAEYLHKEVRTTLWGYSTNEDLTESDLLSIKYQGIRPACGYPSQPDHTEKRTLWKLLEAEKNGIGLTEHLAMLPAASVSGLYFANPQSEYFAVGKIDQDQVIDYAARKNVPKEEVERWLSPILGYDTD | not soluble
4 | MTTSTSPSSTDAPRATAPESSSSSSSSSSSSSSTSSVGASGIPSSSELSSTIGYDPMTASAALSAHFGSYYDPTSSSQIASYFASSQGLGGPQYPILGDQSLCYNPSVTSTHHDWKHLEGDDDDDKDDDKKGISGDDDDMDKNSGGAVYPWMTRVHSTTGGSRGEKRQRTAYTRNQVLELEKEFHTHKYLTRKRRIEVAHSLMLTERQVKIWFQNRRMKHKKENKDKPMTPPMMPFGANLPFGPFRFPLFNQF | not soluble
5 | MVDHLLPVDENFSSPKCPVGYLGDRLVGRRAYHMLPSPVSEDDSDASSPCSCSSPDSQALCSCYGGGLGTESQDSILDFLLSQATLGSGGGSGSSIGASSGPVAWGPWRRAAAPVKGEHFCLPEFPLGDPDDVPRPFQPTLEEIEEFLEENMEPGVKEVPEGNSKDLDACSQLSAGPHKSHLHPGSSGRERCSPPPGGASAGGAQGPGGGPTPDGPIPVLLQIQPVPVKQESGTGPASPGQAPENVKVAQLLVNIQGQTFALVPQVVPSSNLNLPSKFVRIAPVPIAAKPVGSGPLGPGPAGLLMGQKFPKNPAAELIKMHKCTFPGCSKMYTKSSHLKAHLRRHTGEKPFACTWPGCGWRFSRSDELSRHRRSHSGVKPYQCPVCEKKFARSDHLSKHIKVHRFPRSSRSVRSVN | soluble
6 | MVGLDDAASKLGVERRRIYDIVNVLESVGVLTRRAKNQYTWKGFSAIPGALKELQEEGVKDTFHRFYVNENVKGSDDEDDDEESSQPHSSSQTDSSKPGSLPQSSDPSKIDNRREKSLGLLTQNFIKLFICSEAIRIISLDDAAKLLLGDAHNTSIMRTKVRRLYDIANVLSSMNLIEKTHTLDSRKPAFKWLGYNGEPTFTLSSDLLQLESRKRAFGTDITNVNVKRSKSSSSSQENATERRLKMKKHSTPESSYNKSFDVHESRHGSRGGYHFGPFAPGTGTYPTAGLEDNSRRAFDVENLDSDYRPSYQNQGAYILFTSI | soluble
7 | MYQDDHIGSEHSSATTNISHLCGLRISERPQKTRKTGVICTIGPACSDVETLRKMINTGMNIARLNFSHGTHEAHAATIKTIREAAENAPFPVAIALDTKGPEIRTGMFANNMKEVQLENGKSVRVSTDPSMEFAATSSHIYADYRNLPKVVQPGSRIYIDDGLISLIVESCEETAVICTIENGGALGTRKGVNLPGTIVDLPAVTSKDIEDLLFGVEQGVDIIFASFIRNADGIHKIRQVLGEKGKHIYIIAKIESEDGVTNCDEIIEASDGVMVARGDLGIEIPAEKVFLAQKMLIAKCNLAGKPVICATQMLESMITKPRPTRAECSDVANAVLDGVDCVMLSGETAKGDYPVEALAIMHNICKEAESAFFHMKHFEELILHTKKPTGMTHTTAIAAVSATITCRAVAIILITTTGKTARLCSRYRPPVPIITVSRDERISRQLHLHRGIFPVYYPKGRIDEWDVDVEERVQYGVNLGKTRGFIHLGDPLIVITGWKQGAGFTNTMRIVVAT | not soluble
8 | SAHNPNMTHLKINLPVTALPPLWVRCDSSDPEGTCWLGAELITTNNSITGIVLYVVSCKADKNYSVNLENLKNLHKKRHHLSTVTSKGFAQYELFKSSALDDTITASQTAIALDISWSPVDEILQIPPLSSTATLNIKVESGEPRGPLNHLYRELKFLLVLADGLRTGVTEWLEPLEAKSAVELVQEFLNDLNKLDGFGDSTKKDTEVETLKHDTAAVDRSVKRLFKVRSDLDFAEQLWCKMSSSVISYQDLVKCFTLIIQSLQRGDIQPWLHSGSNSLLSKLIHQSYHGTMDTVSLSGTIPVQMLLEIGLDKLKKDYISFFIGQELASLNHLEYFIAPSVDIQEQVYRVQKLHHILEILVSCMPFIKSQHELLFSLTQICIKYYKQNPLDEQHIFQLPVRPTAVKNLYQSEKPQKWRVEIYSGQKKIKTVWQLSDSSPIDHLNFHKPDFSELTLNGSLEERIFFTNMVTCSQVHFK | not soluble
9 | SESEMETQSARAEEGFTQVTRKGGRRAKKRQAEQLSAAGEGGDAGRMDTEEARPAKRPVFPPLCGDGLLSGKEETRKIPVPANRYTPLKENWMKIFTPIVEHLGLQIRFNLKSRNVEIRTCKETKDVSALTKAADFVKAFILGFQVEDALALIRLDDLFLESFEITDVKPLKGDHLSRAIGRIAGKGGKTKFTIENVTRTRIVLADVKVHILGSFQNIKMARTAICNLILGNPPSKVYGNIRAVASRSADRF | soluble
10 | SEVKDANSALLSNYETLKYISKTPCRHQSPEIVREFLTALKSHKLTKAEKLQLLNHRPVTAVEIQLMVEESEERLTEEQIEALLHTVTSILPAEPEAEQKKNTNSNVAMDEEDPA | soluble
11 | TEFKAGSAKKGATLFKTRCLQCHTVEKGGPHKVGPNLHGIFGRHSGQAEGYSYTDANIKKNVLWDENNMSEYLTNPKKYIPGTKMAIGGLKKEKDRNDLITYLKKACE | soluble
